According to patent publication US20250277029A1, “CANNABINOID TYPE 1 RECEPTOR BINDING PROTEINS AND USES THEREOF” (AMGEN INC., priority 2022, published 2025):
Results are given in words; binding and its absence hold for the method and conditions named. Some binding calls cover weakened binding; strength is not graded here.

Chains of the proteins cited; added tags and fusions are not shown. Lines headed by an entry give the natural chain unless they say otherwise; changes in a name come on top.
UniProt P21554: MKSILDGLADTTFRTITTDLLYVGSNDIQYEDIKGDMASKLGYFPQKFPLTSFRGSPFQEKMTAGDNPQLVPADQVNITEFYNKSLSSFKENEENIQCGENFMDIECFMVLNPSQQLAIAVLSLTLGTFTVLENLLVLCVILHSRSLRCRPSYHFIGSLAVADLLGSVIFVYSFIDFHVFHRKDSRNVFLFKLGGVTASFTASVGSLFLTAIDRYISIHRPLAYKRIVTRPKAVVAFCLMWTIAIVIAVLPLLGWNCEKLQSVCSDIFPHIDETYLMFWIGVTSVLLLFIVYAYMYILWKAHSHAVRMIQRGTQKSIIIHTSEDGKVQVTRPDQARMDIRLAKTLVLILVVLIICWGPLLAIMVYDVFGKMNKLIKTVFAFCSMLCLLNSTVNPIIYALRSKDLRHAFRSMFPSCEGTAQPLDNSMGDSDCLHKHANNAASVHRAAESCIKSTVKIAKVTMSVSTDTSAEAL

Columns and labels:
[1] = molecular target: GFP-fused huCB1-SMALP (human CB1 in styrene maleic acid lipoparticles) (human) (UniProt P21554); test: flow cytometry, yeast display
[2] = molecular target: GFP-fused huCB1-SMALP (human CB1 in styrene maleic acid lipoparticles) (human) (UniProt P21554); test: flow cytometry on IgG-displaying yeast, 100 nM GFP-fused huCB1-SMALP, GFP in BB515-A (y) vs AlexaFluor647 anti-huFab display in APC-A (x)
[3] = molecular target: GFP-fused huCB1-SMALP (human CB1 in styrene maleic acid lipoparticles) (human) (UniProt P21554); test: flow cytometry, yeast-displayed Fab

Row | Binder | binding [1] | binding [2] | binding [3]
1 | LIBC523661-1 (antibody, IgG1, V domains shown) VH: QVQLQESGPGLVKPSQTLSLTCTVSGGSIRRGGDYWSWIRQHPGKGLEWIGHIYYEGSTKYNPSFKGRATISVNTYKNQFSLKLSSVTAADTAVYYCARDYDPVTGHSYYYYGMDVWGQGTTVTVSS VL: DIVMTQSPLSLPVTPGEPASISCRSSQSLLTSSGYNYVDWYLQKPGQSPQLLIYQGSNRASGVPDRFSGSGSGTDFTLKISRVEAEDVGVYYCRQARAIPRTFGQGTKVEIKR | binds | binds | –
2 | LIBC523670-1 (antibody, V domains shown) VH: QVQLQESGPGLVKPSQTLSLTCTVSGGSIRRGGDYWAWIRQHPGKGLEWIGHVYQTGQTAYNPNLESRATISVNTYKNQFSLKLSSVTAADTAVYYCARNYDVLSGYSYYYYGMDVWGQGTTVTVSS VL: DIVMTQSPLSLPVTPGEPASISCRSSQSLLTSYGANYLDWYLQKPGQSPQLLIYQGSNRASGVPDRFSGSGSGTDFTLKISRVEAEDVGVYYCMQALQIPRTFGQGTKVEIKR | binds | binds | –
3 | LIBC523760-1 (antibody, V domains shown) VH: QVQLQESGPGLVKPSQTLSLTCTVSGGSIRRGGDYWSWIRQHPGKGLEWIGHVYQTGSTKYNPKFKGRATISVNTYKNQFSLKLSSVTAADTAVYYCARDYDILTGYSYYYYGMDVWGQGTTVTVSS VL: DIVMTQSPLSLPVTPGEPASISCRSSQSLLTSSGANYVDWYLQKPGQSPQLLIYLGSNRASGVPDRFSGSGSGTDFTLKISRVEAEDVGVYYCRQAVGTPRTFGQGTKVEIKR | binds | binds | –
4 | LIBC523813-1 (antibody, V domains shown) VH: QVQLQESGPGLVKPSQTLSLTCTVSGGSIRRGGDYWSWIRQHPGKGLEWIGHVYYTGQTAYNPKFKDRATISVKTYKNQFSLKLSSVTAADTAVYYCARDYDILTGYSYYYYGMDVWGQGTTVTVSS VL: DIVMTQSPLSLPVTPGEPASISCRSSQSLLSSSGANYVDWYLQKPGQSPQLLIYLGSNRASGVPDRFSGSGSGTDFTLKISRVEAEDVGVYYCMQARGIPRTFGQGTKVEIKR | binds | binds | –
5 | LIBC523815-1 (antibody, V domains shown) VH: QVQLQESGPGLVKPSQTLSLTCTVSGGSIRRGGDYWSWIRQHPGKGLEWIGHIYQSGQTKYNPSLKDRATISVNTYKNQFSLKLSSVTAADTAVYYCARDYDILTGYSYYYYGMDVWGQGTTVTVSS VL: DIVMTQSPLSLPVTPGEPASISCRSSQSLLTSSGANYVDWYLQKPGQSPQLLIYLGSNRASGVPDRFSGSGSGTDFTLKISRVEAEDVGVYYCRQAREQPRTFGQGTKVEIKR | binds | binds | –
6 | LIBC523844-1 (antibody, V domains shown) VH: QVQLQESGPGLVKPSQTLSLTCTVSGGSIRRGGDYWSWIRQHPGKGLEWIGHVYYTGSTKYNPSFKDRATISVNTYKNQFSLKLSSVTAADTAVYYCARDYDILTGYSYYYYGMDVWGQGTTVTVSS VL: DIVMTQSPLSLPVTPGEPASISCRSSQSLLSSSGANYVDWYLQKPGQSPQLLIYQGSNRASGVPDRFSGSGSGTDFTLKISRVEAEDVGVYYCRQARALPRTFGQGTKVEIKR | binds | binds | –
7 | LIBC523857-1 (antibody, V domains shown) VH: QVQLQESGPGLVKPSQTLSLTCTVSGGSIRRGGDYWSWIRQHPGKGLEWIGHIYQTGQTAYNPRLEGRATISVNTYKNQFSLKLSSVTAADTAVYYCARDYDILTGYSYYYYGMDVWGQGTTVTVSS VL: DIVMTQSPLSLPVTPGEPASISCRSSQSLLSSTGANYLDWYLQKPGQSPQLLIYLGSNRASGVPDRFSGSGSGTDFTLKISRVEAEDVGVYYCRQAVELPRTFGQGTKVEIKR | binds | binds | –
8 | LIBC523862-1 (antibody, V domains shown) VH: QVQLQESGPGLVKPSQTLSLTCTVSGGSIRRGGDYWSWIRQHPGKGLEWIGHIYQTGSTAYNPSLKGRATISVNTYKNQFSLKLSSVTAADTAVYYCARDYDILTGYSYYYYGMDVWGQGTTVTVSS VL: DIVMTQSPLSLPVTPGEPASISCRSSQSLLHSTGANYVDWYLQKPGQSPQLLIYLGSNRASGVPDRFSGSGSGTDFTLKISRVEAEDVGVYYCRQAIALPRTFGQGTKVEIKR | binds | binds | –
9 | LIBC523868-1 (antibody, V domains shown) VH: QVQLQESGPGLVKPSQTLSLTCTVSGGSIRRGGDYWSWIRQHPGKGLEWIGHVYYEGSTAYNPSFEDRATISVNTYKNQFSLKLSSVTAADTAVYYCARDYDILTGYSYYYYGMDVWGQGTTVTVSS VL: DIVMTQSPLSLPVTPGEPASISCRSSQSLLTSYGINYVDWYLQKPGQSPQLLIYLGSNRASGVPDRFSGSGSGTDFTLKISRVEAEDVGVYYCMQARQIPRTFGQGTKVEIKR | binds | binds | –
10 | LIBC523969-1 (antibody, V domains shown) VH: QVQLQESGPGLVKPSQTLSLTCTVSGGSIRRGGDYWSWIRQHPGKGLEWIGHIYQTGQTKYNPNLKGRATISVNTYKNQFSLKLSSVTAADTAVYYCARDYDILTGYSYYYYGMDVWGQGTTVTVSS VL: DIVMTQSPLSLPVTPGEPASISCRSSQSLLSSTGANYLDWYLQKPGQSPQLLIYQGSNRASGVPDRFSGSGSGTDFTLKISRVEAEDVGVYYCRQAVGLPRTFGQGTKVEIKR | binds | binds | –
11 | LIBC527814-1 (antibody, IgG1, V domains shown) VH: QVQLQESGPGLVKPSQTLSLTCTVSGGSIRRGGDYWGWIRQHPGKGLEWIGHVYQTGSTKYNPSFKDRATISVNTYKNQFSLKLSSVTAADTAVYYCARNYDTLTGYSYYYYGMDVWGQGTTVTVSS VL: DIQMTQSPSTLSASVGDRVTITCRASQSISNYLNWYQQKPGKAPKLLIYAASSLHSGVPSRFSGSGSGTDFTLTISSLQPEDFASYYCQQYQSYPLTFGQGTKVEIKR | binds | binds | –
12 | LIBC527997-1 (antibody, IgG1, V domains shown) VH: QVQLQESGPGLVKPSQTLSLTCTVSGGSIRRGGDYWAWIRQHPGKGLEWIGHIYQTGSTNYNPRFKGRATISVNTYKNQFSLKLSSVTAADTAVYYCARNYDTLTGYSYYYYGMDVWGQGTTVTVSS VL: DIQMTQSPSSLSASVGDRVTITCRASQSISNYLNWYQQKPGKAPKLLIYAASSLHSGVPSRFSGSGSGTDFTLTISSLQPEDFASYYCQQYQSYPLTFGQGTKVEIKR | binds | binds | –
13 | LIBC527912-1 (antibody, V domains shown) VH: QVQLQESGPGLVKPSQTLSLTCTVSGGSIRRGGDYWSWIRQHPGKGLEWIGYIYQTGQTKYNPNFEGRATISVNTYKNQFSLKLSSVTAADTAVYYCARDYDILTGYSYYYYGMDVWGQGTTVTVSS VL: DIQLTQSPSSLSASVGDRVTITCRASQSISSYLNWYQQKPGKAPKLLIYAASSLRSGVPSRFSGSGSGTDFTLTISSLQPEDFATYYCQQYSNYPLTFGGGTRVEIKR | binds | binds | –
14 | LIBC527879-1 (antibody, V domains shown) VH: QVQLQESGPGLVKPSQTLSLTCTVSGGSIRRGGDYWGWIRQHPGKGLEWIGHIYQSGSTNYNPKLKSRATISVDTYKNQFSLKLSSVTAADTAVYYCARDYDIFTGYSYYYYGMDVWGQGTTVTVSS VL: DIQLTQSPSSLSASVGDRVTITCRASQSIISYLNWYQQKPGKAPKLLIYAASSLRSGVPSRFSGSGSGTDFTLTISSLQPEDFATYYCQQYSNYPLTFGGGTRVEIKR | binds | binds | –
15 | LIBC527919-1 (antibody, IgG1, V domains shown) VH: QVQLQESGPGLVKPSQTLSLTCTVSGGSIRRGGDYWAWIRQHPGKGLEWIGHVYQTGSTAYNPNFKDRATISVNTYKNQFSLKLSSVTAADTAVYYCARNYDALSGYSYYYYGMDVWGQGTTVTVSS VL: DIQLTQSPSSLSASVGDRVTITCRASQSIISYLNWYQQKPGKAPKLLIYAASSLRSGVPSRFSGSGSGTDFTLTISSLQPEDFATYYCQQYSNYPLTFGGGTRVEIKR | binds | binds | –
16 | LIBC527984-1 (antibody, V domains shown) VH: QVQLQESGPGLVKPSQTLSLTCTVSGGSIRRGGDYWSWIRQHPGKGLEWIGHIYQTGKTNYNPNFKSRATISVNTYKNQFSLKLSSVTAADTAVYYCARDYDILTGYSYYYYGMDVWGQGTTVTVSS VL: DIQMTQSPSTLSASVGDRVTITCRASQSISNYLNWYQQKPGKAPKLLIYAASSLHSGVPSRFSGSGSGTDFTLTISSLQPEDFASYYCQQYQSYPLTFGQGTKVEIKR | binds | binds | –
17 | LIBC528131-1 (antibody, V domains shown) VH: QVQLQESGPGLVKPSQTLSLTCTVSGGSIRRGGDYWSWIRQHPGKGLEWIGHIYQTGQTAYNPNLEGRATISVNTYKNQFSLKLSSVTAADTAVYYCARDYDILTGYSYYYYGMDVWGQGTTVTVSS VL: EIVLTQSPATLSLSPGERATLSCRASQSVSSYLGWYQQKPGQAPRLLIYGASSRATGIPDRFSGSGSGTDFTLTISRLEPEDFAVYYCQQYGSSPRTFGQGTKVEIKR | binds | binds | –
18 | LIBC527827-1 (antibody, V domains shown) VH: QVQLQESGPGLVKPSQTLSLTCTVSGGSIRRGGDYWGWIRQHPGKGLEWIGHVYQSGQTAYNPKFENRATISVKTYKNQFSLKLSSVTAADTAVYYCARNYDTLTGHSYYYYGMDVWGQGTTVTVSS VL: DIQMTQSPSTLSASVGDRVTITCRASQSISNYLNWYQQKPGKAPKLLIYAASSLHSGVPSRFSGSGSGTDFTLTISSLQPEDFASYYCQQYQSYPLTFGQGTKVEIKR | binds | binds | –
19 | LIBC680562-1 (Fab, V domains shown) VH: QVQLQESGPGLVKPSQTLSLTCTVSGGSIRRGGDYWAWIRQHPGKGLEWIGHIYQTGSTNYNPRFKGRATISVNTYKNQFSLKLSSVTAADTAVYYCARNYDTLTGYSYYYYGMDVWGQGTTVTVSS VL: DIQMTQSPSSLSASVGDRVTITCRASQSISSYLNWYQQKPGKAPKLLIYSARRLSSGVPSRFSGSGSGTDFTLTISSLQPEDFATYYCQQYAKSPITFGGGTKVEIKR | – | – | binds
